Reference: publication PMC9700621, “Novel RAB27A Variant Associated with Late-Onset Hemophagocytic Lymphohistiocytosis Alters Effector Protein Binding” (Journal of Clinical Immunology, 2022)
These are yes or no findings as the source states them, for the method shown. In cells and extracts the contact can be indirect. Some binding calls cover weakened binding; strength is not graded here. Where a sequence is shown, tags or fusion partners need not be part of it. Each block holds one binder with its values, some of them ahead of it.

Experiments:
Assay in all cases: co-IP; HEK-293FT cells co-transfected with FLAG-RAB27A constructs and a MYC-tagged effector; lysis in 25 mM Tris-HCl pH 8.0, 150 mM NaCl, 1% TritonX-100, 5 mM EDTA, 10 mM DTT; goat anti-FLAG immunoprecipitation on protein G beads; blots with anti-Myc and anti-FLAG, quantified
[1] = biological target: FLAG-RAB27A p.Q78L + p.R184Q (human) (UniProt P51159)
[2] = biological target: FLAG-RAB27A p.T23N (human) (UniProt P51159)
[3] = biological target: FLAG-RAB27A wild-type (human) (UniProt P51159)
[4] = biological target: FLAG-RAB27A p.Q78L (human) (UniProt P51159)
[5] = biological target: T1, FLAG-RAB27A p.R184Q (human, UniProt P51159-1 1-221, p.R184Q)
T1 construct: RAB27A, human, with the patient's variant p.R184Q made by site-directed mutagenesis; variant found homozygous in the patient; also called patient-derived p.R184Q variant; RAB27A c.551G > A p.(R184Q); source: HEK-293FT, transfected, in lysate; not shown: 3xFLAG, N-terminal, kept
T1 sequence (looked up): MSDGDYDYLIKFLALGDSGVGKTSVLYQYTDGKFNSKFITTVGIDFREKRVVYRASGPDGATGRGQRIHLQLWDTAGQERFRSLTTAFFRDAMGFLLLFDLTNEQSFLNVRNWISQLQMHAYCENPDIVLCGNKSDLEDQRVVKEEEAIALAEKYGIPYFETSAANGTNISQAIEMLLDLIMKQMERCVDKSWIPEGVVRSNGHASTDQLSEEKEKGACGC

binding [1]: binds
binding [2]: binds
binding [3]: binds
B1: MYC-MUNC13-4 (natural protein, UniProt Q70J99 1-1090, looked up)
chain: MATLLSHPQQRPPFLRQAIKIRRRRVRDLQDPPPQMAPEIQPPSHHFSPEQRALLYEDALYTVLHRLGHPEPNHVTEASELLRYLQEAFHVEPEEHQQTLQRVRELEKPIFCLKATVKQAKGILGKDVSGFSDPYCLLGIEQGVGVPGGSPGSRHRQKAVVRHTIPEEETHRTQVITQTLNPVWDETFILEFEDITNASFHLDMWDLDTVESVRQKLGELTDLHGLRRIFKEARKDKGQDDFLGNVVLRLQDLRCREDQWYPLEPRTETYPDRGQCHLQFQLIHKRRATSASRSQPSYTVHLHLLQQLVSHEVTQHEAGSTSWDGSLSPQAATVLFLHATQKDLSDFHQSMAQWLAYSRLYQSLEFPSSCLLHPITSIEYQWIQGRLKAEQQEELAASFSSLLTYGLSLIRRFRSVFPLSVSDSPARLQSLLRVLVQMCKMKAFGELCPNTAPLPQLVTEALQTGTTEWFHLKQQHHQPMVQGIPEAGKALLGLVQDVIGDLHQCQRTWDKIFHNTLKIHLFSMAFRELQWLVAKRVQDHTTVVGDVVSPEMGESLFQLYISLKELCQLRMSSSERDGVLALDNFHRWFQPAIPSWLQKTYNEALARVQRAVQMDELVPLGELTKHSTSAVDLSTCFAQISHTARQLDWPDPEEAFMITVKFVEDTCRLALVYCSLIKARARELSSGQKDQGQAANMLCVVVNDMEQLRLVIGKLPAQLAWEALEQRVGAVLEQGQLQNTLHAQLQSALAGLGHEIRTGVRTLAEQLEVGIAKHIQKLVGVRESVLPEDAILPLMKFLEVELCYMNTNLVQENFSSLLTLLWTHTLTVLVEAAASQRSSSLASNRLKIALQNLEICFHAEGCGLPPKALHTATFQALQRDLELQAASSRELIRKYFCSRIQQQAETTSEELGAVTVKASYRASEQKLRVELLSASSLLPLDSNGSSDPFVQLTLEPRHEFPELAARETQKHKKDLHPLFDETFEFLVPAEPCRKAGACLLLTVLDYDTLGADDLEGEAFLPLREVPGLSGSEEPGEVPQTRLPLTYPAPNGDPILQLLEGRKGDREAQVFVRLRRHRAKQASQHALRPAP
notes: MUNC13-4; 'MYC-tagged, full-length SLP2A, MUNC13-4'; source: HEK-293FT, transfected, in lysate; not shown: MYC, N-terminal, kept

binding [4]: binds
binding [2]: binds
binding [3]: binds
binding [5]: binds
B2: MYC-MELANOPHILIN (protein, UniProt Q9BV36 1-600)
chain: MGKKLDLSKLTDEEAQHVLEVVQRDFDLRRKEEERLEALKGKIKKESSKRELLSDTAHLNETHCARCLQPYQLLVNSKRQCLECGLFTCKSCGRVHPEEQGWICDPCHLARVVKIGSLEWYYEHVKARFKRFGSAKVIRSLHGRLQGGAGPELISEERSGDSDQTDEDGEPGSEAQAQAQPFGSKKKRLLSVHDFDFEGDSDDSTQPQGHSLHLSSVPEARDSPQSLTDESCSEKAAPHKAEGLEEADTGASGCHSHPEEQPTSISPSRHGALAELCPPGGSHRMALGTAAALGSNVIRNEQLPLQYLADVDTSDEESIRAHVMASHHSKRRGRASSESQIFELNKHISAVECLLTYLENTVVPPLAKGLGAGVRTEADVEEEALRRKLEELTSNVSDQETSSEEEEAKDEKAEPNRDKSVGPLPQADPEVGTAAHQTNRQEKSPQDPGDPVQYNRTTDEELSELEDRVAVTASEVQQAESEVSDIESRIAALRAAGLTVKPSGKPRRKSNLPIFLPRVAGKLGKRPEDPNADPSSEAKAMAVPYLLRRKFSNSLKSQGKDDDSFDRKSVYRGSLTQRNPNARKGMASHTFAKPVVAHQS
